A: 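Whole-parasite assay of Trypanosoma brucei over 72 hours; the read-out is not stated. Compounds at 30 µM. The record gives no direction; compounds that gave an IC50 in retests scored well above the rest, so higher reads as stronger inhibition. Values scatter widely below zero; nearly all retest evidence comes from the higher of the two concentrations used. Of about 64,000 compounds tested this way, about 940 (1.5%) reached 50% or more in at least one test.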
B: 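Assay of Toxoplasma gondii numbers, read through their beta-galactosidase reporter with a colour substrate. Concentration: 10 µM. Higher reads as fewer parasites (inferred from which compounds were picked for retests). Of about 67,000 compounds tested this way, about 260 (0.38%) reached 50% or more in at least one test.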
C: 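Cell assay of Leishmania donovani living inside macrophages; the read-out is not stated. Concentration: 30 µM. Higher reads as stronger inhibition (inferred: compounds with an IC50 in retests scored well above the rest). Of about 69,000 compounds tested this way, about 1,000 (1.5%) reached 50% or more in at least one test.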

The filed quantity is “Percent Effect” (%). How 0% and 100% were set is not recorded. Most values in the screen are low, and negative values occur. The compounds are a random part of those screened.

Result for CCCc1nc(CN(C)CC2CCN(CCO)CC2)no1 was A: -26.59%; B: -2.528%; C: 28.59%. Result for CCCS(=O)(=O)NCCc1ncc(CC)s1 was A: -18.84%; B: -6.568%; C: 0.5641%. Result for CC(C)CCN1CCC2(CC1)CN(C(=O)c1cnccn1)CCO2.O=C(O)C(F)(F)F was A: 15.72%; B: 1.068%; C: 36.91%. Result for CCNC(=O)Cc1ccc(NC(=O)NC(CC)CC)cc1 was A: -16.97%; B: 3.168%; C: 4.349%. COc1ccccc1C1CNC(=O)c2nc(-c3c(C)n[nH]c3C)[nH]c2C1 (stereo not drawn) read A: -28.58%; B: -12.22%; C: 17.17%. CCc1nc(C(=O)N2CCN(Cc3ccc(Cl)cc3)CC2)c[nH]1 read A: -58.15%; B: 7.68%; C: 22.65%. Result for O=C(Nc1cccnc1N1CCSCC1)c1ccc2c(c1)CCO2 was A: -55.04%; B: -1.206%; C: -7.366%. Result for Cc1[nH]c2ccc(CNC3CCN(Cc4ccccn4)CC3)cc2c1C was A: 1.094%; B: 4.184%; C: 65.08%.

O=C(O)C(F)(F)F.[H][C@@]12CN(C3CCOCC3)C[C@]1([H])OCCN2Cc1c(C)noc1C read A: -6.902%; B: 1.898%; C: 36.92%. With CS(=O)(=O)c1ccc(-c2cc(C3CC3)c(C#N)c(N)n2)cc1 the screen gave A: -58.92%; B: -23.07%; C: 2.615%. O=C(CN1CCCNC1=O)N1CCCC(c2nccs2)C1 (stereo not drawn) read A: -2.507%; B: -0.8401%; C: -3.378%. With CCOCCN1CCN(CC(O)c2ccc(C(F)(F)F)cc2)CC1 (stereo not drawn) the screen gave A: 12.43%; B: 4.681%; C: 42.89%. With O=C(O)C(F)(F)F.[H][C@@]12COC[C@]1(COCC(=O)N(C)C)CN(CCc1ccccc1)C2 the screen gave A: -48.5%; B: 23.84%; C: 0.1764%. With CCN(CC)CCCNCc1cc2cc(C)ccc2[nH]c1=O the screen gave A: -2.792%; B: 9.085%; C: 6.221%. Result for O=C(CCc1ccccc1)N1CCC(c2n[nH]c(C3CC3)n2)CC1 was A: -22.15%; C: 8.386%. With Cc1nonc1NC(=O)C1SCCc2ccccc21 (stereo not drawn) the screen gave A: -34.09%; B: 2.92%; C: -8.319%.

With CCS(=O)(=O)N1CCC2(CN(c3cccc(F)c3)C(=O)CN2C)C1.O=C(O)C(F)(F)F (stereo not drawn) the screen gave A: -16.19%; B: 15.01%; C: 19.15%. For Cc1noc(C)c1CCN1CCCC1c1nc2cc(F)ccc2[nH]1 (stereo not drawn) the result was A: 11.96%; B: 17.13%; C: -20.83%. For Cc1n[nH]c(C2CN(C(=O)CCOCC(F)(F)F)CCO2)n1 (stereo not drawn) the result was A: -5.435%; B: -2.561%; C: 1.438%. Result for O=C(O)C(F)(F)F.O=C(O)C(F)(F)F.O=C1N(Cc2cccnc2)CCC12CCCN(c1ncccn1)C2 (stereo not drawn) was A: -40.88%; B: 11.32%; C: 0.329%. COc1ncc(Cl)c(NCc2ccc([S+](C)[O-])cc2)n1 (stereo not drawn) gave A: -9.767%; B: -4.673%; C: -32.78%. O=C(NCc1ccncc1)N1CCSCC1CCO (stereo not drawn) gave A: -64.97%; B: 2.21%; C: 2.761%. Cc1nc(CCNC(Cc2ccncc2)C(F)(F)F)cs1 (stereo not drawn) read A: -23.73%; B: 3.086%; C: 9.128%. O=C(O)C(F)(F)F.O=C(O)C(F)(F)F.[H][C@@]12COC[C@@H](CC(=O)NCc3cccnc3)[C@]1([H])CN(CCOC)C2 read A: 7.344%; B: 3.423%; C: 44.79%.

With COc1cc(C(=O)NS(=O)(=O)c2cccc(C#N)c2)cc(Cl)c1OC the screen gave A: 9.897%; B: -0.1077%; C: 18.81%. Result for CN(C)CCN1C(=O)CCC12CCCN(C(=O)c1ccncc1F)C2.O=C(O)C(F)(F)F (stereo not drawn) was A: -1.642%; B: -13.28%; C: 10.14%. For OCC1CCCN1c1cc(NCCNc2ccccn2)ncn1 (stereo not drawn) the result was A: -51.87%; B: 1.642%; C: 16.04%. COc1cc(CNC2CCN(c3ccccc3)C2)cc(OC)c1OC (stereo not drawn) gave A: 8.758%; B: -0.2674%; C: 8.269%.

4 of the entries, repeated:

SMILES	A	B	C
COc1ccccc1C1CNC(=O)c2nc(-c3c(C)n[nH]c3C)[nH]c2C1 (stereo not drawn)	-28.58%	-12.22%	17.17%
CCNC(=O)Cc1ccc(NC(=O)NC(CC)CC)cc1	-16.97%	3.168%	4.349%
O=C(O)C(F)(F)F.[H][C@@]12CN(C3CCOCC3)C[C@]1([H])OCCN2Cc1c(C)noc1C	-6.902%	1.898%	36.92%
O=C(Nc1cccnc1N1CCSCC1)c1ccc2c(c1)CCO2	-55.04%	-1.206%	-7.366%

Source: ChEMBL document CHEMBL3988442, “University of Dundee, Small-Polar-MMV Screening Library” (2021).